The exact form of at least one protein or probe is not confirmed. For some assays here: Weaker means in comparison with the reference protein, sequence or condition of that experiment. For some assays here: Results from cells or extracts need not show a direct contact. For some assays here: No signal at the amounts used counts as a negative. For some assays here: At least one verdict was read from the data and is not stated in words by the source. For some assays here: Protein sequences can lack the tags named with them.
Legend:
[1] = target: SRSF1 (Homo sapiens) (UniProt Q07955); assay: SPR; conditions: 100 nM RNA; 3' biotin; SPR: 25 °C, 1:10 mixture of binding buffer (10 mM Tris-HCl pH 7.5, 150 mM KCl) and HBS-EP (10 mM HEPES pH 7.4, 150 mM NaCl, 3 mM EDTA, 0.005% P20), protein immobilized; recombinant protein; protein details: N-terminal His-tag (pET28a); label: biotin
[2] = target: EFHD2 (Homo sapiens) (UniProt Q96C19); assay: SPR; conditions: 100 nM RNA; 3' biotin; SPR: 25 °C, 1:10 mixture of binding buffer (10 mM Tris-HCl pH 7.5, 150 mM KCl) and HBS-EP (10 mM HEPES pH 7.4, 150 mM NaCl, 3 mM EDTA, 0.005% P20), protein immobilized; recombinant protein; protein details: N-terminal His-tag (pET28a); label: biotin
[3] = target: Tropomyosin alpha 4 (Homo sapiens) (UniProt P67936); assay: pull-down; conditions: 3' biotin; pull-down: RNA on streptavidin beads blocked in 10 mM Tris-HCl pH 7.5, 100 mM KCl, 0.1 mM EDTA, 1 mM DTT, 0.01% Triton X-100, BSA, tRNA; extract 1 h at 30 °C; protein in an extract; label: biotin
[4] = target: RPS9 (Homo sapiens) (UniProt P46781); assay: pull-down; conditions: 3' biotin; pull-down: RNA on streptavidin beads blocked in 10 mM Tris-HCl pH 7.5, 100 mM KCl, 0.1 mM EDTA, 1 mM DTT, 0.01% Triton X-100, BSA, tRNA; extract 1 h at 30 °C; protein in an extract; label: biotin
[5] = target: Y-box-binding protein 3 (Homo sapiens) (UniProt P16989); assay: pull-down; conditions: 3' biotin; pull-down: RNA on streptavidin beads blocked in 10 mM Tris-HCl pH 7.5, 100 mM KCl, 0.1 mM EDTA, 1 mM DTT, 0.01% Triton X-100, BSA, tRNA; extract 1 h at 30 °C; protein in an extract; label: biotin
[6] = target: hnRNPA3 (Homo sapiens) (UniProt P51991); assay: pull-down; conditions: 3' biotin; pull-down: RNA on streptavidin beads blocked in 10 mM Tris-HCl pH 7.5, 100 mM KCl, 0.1 mM EDTA, 1 mM DTT, 0.01% Triton X-100, BSA, tRNA; extract 1 h at 30 °C; protein in an extract; label: biotin
[7] = target: RPL27a (Homo sapiens) (UniProt P46776); assay: pull-down; conditions: 3' biotin; pull-down: RNA on streptavidin beads blocked in 10 mM Tris-HCl pH 7.5, 100 mM KCl, 0.1 mM EDTA, 1 mM DTT, 0.01% Triton X-100, BSA, tRNA; extract 1 h at 30 °C; protein in an extract; label: biotin
[8] = target: G3BP2 (Homo sapiens) (UniProt Q9UN86); assay: pull-down; conditions: 3' biotin; pull-down: RNA on streptavidin beads blocked in 10 mM Tris-HCl pH 7.5, 100 mM KCl, 0.1 mM EDTA, 1 mM DTT, 0.01% Triton X-100, BSA, tRNA; extract 1 h at 30 °C; protein in an extract; label: biotin
[9] = target: RPS2 (Homo sapiens) (UniProt P15880); assay: pull-down; conditions: 3' biotin; pull-down: RNA on streptavidin beads blocked in 10 mM Tris-HCl pH 7.5, 100 mM KCl, 0.1 mM EDTA, 1 mM DTT, 0.01% Triton X-100, BSA, tRNA; extract 1 h at 30 °C; protein in an extract; label: biotin
[10] = target: Nucleolin (native) (Homo sapiens) (UniProt P19338); assay: pull-down; conditions: 3' biotin; pull-down: RNA on streptavidin beads blocked in 10 mM Tris-HCl pH 7.5, 100 mM KCl, 0.1 mM EDTA, 1 mM DTT, 0.01% Triton X-100, BSA, tRNA; extract 1 h at 30 °C; protein in an extract; label: biotin
[11] = target: RPL26 (Homo sapiens) (UniProt P61254); assay: pull-down; conditions: 3' biotin; pull-down: RNA on streptavidin beads blocked in 10 mM Tris-HCl pH 7.5, 100 mM KCl, 0.1 mM EDTA, 1 mM DTT, 0.01% Triton X-100, BSA, tRNA; extract 1 h at 30 °C; protein in an extract; label: biotin
[12] = target: T1, RBM14 (Homo sapiens) (UniProt Q96PK6); assay: pull-down; conditions: 3' biotin; pull-down: RNA on streptavidin beads blocked in 10 mM Tris-HCl pH 7.5, 100 mM KCl, 0.1 mM EDTA, 1 mM DTT, 0.01% Triton X-100, BSA, tRNA; extract 1 h at 30 °C; protein in an extract; label: biotin
T1 sequence (looked up, limits assumed): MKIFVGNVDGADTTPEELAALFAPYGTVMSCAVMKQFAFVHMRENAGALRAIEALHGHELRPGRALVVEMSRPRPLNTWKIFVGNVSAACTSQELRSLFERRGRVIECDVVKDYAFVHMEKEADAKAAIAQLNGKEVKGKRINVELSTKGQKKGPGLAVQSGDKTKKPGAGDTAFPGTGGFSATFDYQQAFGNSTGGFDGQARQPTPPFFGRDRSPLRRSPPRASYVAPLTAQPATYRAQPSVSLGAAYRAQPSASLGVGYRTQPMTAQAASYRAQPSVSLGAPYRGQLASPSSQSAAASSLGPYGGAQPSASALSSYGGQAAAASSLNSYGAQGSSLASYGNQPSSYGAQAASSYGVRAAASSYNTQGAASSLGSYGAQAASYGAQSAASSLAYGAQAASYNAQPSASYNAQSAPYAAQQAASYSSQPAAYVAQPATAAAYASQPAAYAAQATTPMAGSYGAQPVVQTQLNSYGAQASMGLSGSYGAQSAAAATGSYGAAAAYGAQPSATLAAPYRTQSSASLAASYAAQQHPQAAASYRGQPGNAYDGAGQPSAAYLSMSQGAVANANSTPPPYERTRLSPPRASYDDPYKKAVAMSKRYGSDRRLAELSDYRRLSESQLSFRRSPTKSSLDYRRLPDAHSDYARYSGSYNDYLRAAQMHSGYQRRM

[13] = target: RPL14 (Homo sapiens) (UniProt P50914); assay: pull-down; conditions: 3' biotin; pull-down: RNA on streptavidin beads blocked in 10 mM Tris-HCl pH 7.5, 100 mM KCl, 0.1 mM EDTA, 1 mM DTT, 0.01% Triton X-100, BSA, tRNA; extract 1 h at 30 °C; protein in an extract; label: biotin
[14] = target: RPL19 (Homo sapiens) (UniProt P84098); assay: pull-down; conditions: 3' biotin; pull-down: RNA on streptavidin beads blocked in 10 mM Tris-HCl pH 7.5, 100 mM KCl, 0.1 mM EDTA, 1 mM DTT, 0.01% Triton X-100, BSA, tRNA; extract 1 h at 30 °C; protein in an extract; label: biotin
[15] = target: EFHD2 (native) (Homo sapiens) (UniProt Q96C19); assay: pull-down; conditions: 3' biotin; pull-down: RNA on streptavidin beads blocked in 10 mM Tris-HCl pH 7.5, 100 mM KCl, 0.1 mM EDTA, 1 mM DTT, 0.01% Triton X-100, BSA, tRNA; extract 1 h at 30 °C; protein in an extract; label: biotin
[16] = target: SRSF9 (Homo sapiens) (UniProt Q13242); assay: pull-down; conditions: 3' biotin; pull-down: RNA on streptavidin beads blocked in 10 mM Tris-HCl pH 7.5, 100 mM KCl, 0.1 mM EDTA, 1 mM DTT, 0.01% Triton X-100, BSA, tRNA; extract 1 h at 30 °C; protein in an extract; label: biotin
[17] = target: U2AF65 (native) (Homo sapiens) (UniProt P26368); assay: pull-down; conditions: 3' biotin; pull-down: RNA on streptavidin beads blocked in 10 mM Tris-HCl pH 7.5, 100 mM KCl, 0.1 mM EDTA, 1 mM DTT, 0.01% Triton X-100, BSA, tRNA; extract 1 h at 30 °C; protein in an extract; label: biotin
[18] = system: Actin (Homo sapiens); assay: pull-down; conditions: 3' biotin; pull-down: RNA on streptavidin beads blocked in 10 mM Tris-HCl pH 7.5, 100 mM KCl, 0.1 mM EDTA, 1 mM DTT, 0.01% Triton X-100, BSA, tRNA; extract 1 h at 30 °C; protein in an extract; label: biotin
[19] = target: T2, hnRNPH (Homo sapiens) (UniProt P31943); assay: pull-down; conditions: 3' biotin; pull-down: RNA on streptavidin beads blocked in 10 mM Tris-HCl pH 7.5, 100 mM KCl, 0.1 mM EDTA, 1 mM DTT, 0.01% Triton X-100, BSA, tRNA; extract 1 h at 30 °C; protein in an extract; label: biotin
T2 sequence (looked up, limits assumed): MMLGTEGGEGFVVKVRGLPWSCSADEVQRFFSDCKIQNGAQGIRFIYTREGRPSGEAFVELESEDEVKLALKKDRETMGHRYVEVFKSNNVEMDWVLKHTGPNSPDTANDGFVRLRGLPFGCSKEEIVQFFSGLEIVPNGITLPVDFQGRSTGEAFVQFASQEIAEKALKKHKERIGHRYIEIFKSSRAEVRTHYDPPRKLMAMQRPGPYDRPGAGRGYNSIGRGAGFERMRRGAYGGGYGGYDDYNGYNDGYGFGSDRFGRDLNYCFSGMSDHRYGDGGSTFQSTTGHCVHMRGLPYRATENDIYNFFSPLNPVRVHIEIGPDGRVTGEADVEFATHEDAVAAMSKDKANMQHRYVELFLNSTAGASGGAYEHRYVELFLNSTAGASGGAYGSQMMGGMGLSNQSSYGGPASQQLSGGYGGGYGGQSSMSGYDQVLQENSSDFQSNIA

[20] = target: T3, hnRNPF (Homo sapiens) (UniProt P52597); assay: pull-down; conditions: 3' biotin; pull-down: RNA on streptavidin beads blocked in 10 mM Tris-HCl pH 7.5, 100 mM KCl, 0.1 mM EDTA, 1 mM DTT, 0.01% Triton X-100, BSA, tRNA; extract 1 h at 30 °C; protein in an extract; label: biotin
T3 sequence (looked up, limits assumed): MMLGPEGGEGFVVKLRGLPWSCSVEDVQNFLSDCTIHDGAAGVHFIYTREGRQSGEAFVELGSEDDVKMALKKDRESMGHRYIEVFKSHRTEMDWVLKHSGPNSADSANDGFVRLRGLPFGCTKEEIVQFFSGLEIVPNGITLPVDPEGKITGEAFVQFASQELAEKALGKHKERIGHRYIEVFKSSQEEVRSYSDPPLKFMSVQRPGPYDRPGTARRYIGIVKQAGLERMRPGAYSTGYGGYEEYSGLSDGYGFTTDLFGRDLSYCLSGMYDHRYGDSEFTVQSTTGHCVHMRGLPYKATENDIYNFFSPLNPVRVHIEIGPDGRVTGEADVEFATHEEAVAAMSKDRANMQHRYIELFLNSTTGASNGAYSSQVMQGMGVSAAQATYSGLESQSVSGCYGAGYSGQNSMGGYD

[21] = target: RPS6 (Homo sapiens) (UniProt P62753); assay: pull-down; conditions: 3' biotin; pull-down: RNA on streptavidin beads blocked in 10 mM Tris-HCl pH 7.5, 100 mM KCl, 0.1 mM EDTA, 1 mM DTT, 0.01% Triton X-100, BSA, tRNA; extract 1 h at 30 °C; protein in an extract; label: biotin
[22] = target: SRSF1 (native) (Homo sapiens) (UniProt Q07955); assay: pull-down; conditions: 3' biotin; pull-down: RNA on streptavidin beads blocked in 10 mM Tris-HCl pH 7.5, 100 mM KCl, 0.1 mM EDTA, 1 mM DTT, 0.01% Triton X-100, BSA, tRNA; extract 1 h at 30 °C; protein in an extract; label: biotin
[23] = target: RPL12 (Homo sapiens) (UniProt P30050); assay: pull-down; conditions: 3' biotin; pull-down: RNA on streptavidin beads blocked in 10 mM Tris-HCl pH 7.5, 100 mM KCl, 0.1 mM EDTA, 1 mM DTT, 0.01% Triton X-100, BSA, tRNA; extract 1 h at 30 °C; protein in an extract; label: biotin
[24] = target: RPL10 (Homo sapiens) (UniProt P27635); assay: pull-down; conditions: 3' biotin; pull-down: RNA on streptavidin beads blocked in 10 mM Tris-HCl pH 7.5, 100 mM KCl, 0.1 mM EDTA, 1 mM DTT, 0.01% Triton X-100, BSA, tRNA; extract 1 h at 30 °C; protein in an extract; label: biotin
[25] = target: RPL7 (Homo sapiens) (UniProt P18124); assay: pull-down; conditions: 3' biotin; pull-down: RNA on streptavidin beads blocked in 10 mM Tris-HCl pH 7.5, 100 mM KCl, 0.1 mM EDTA, 1 mM DTT, 0.01% Triton X-100, BSA, tRNA; extract 1 h at 30 °C; protein in an extract; label: biotin
[26] = target: RPL6 (Homo sapiens) (UniProt Q02878); assay: pull-down; conditions: 3' biotin; pull-down: RNA on streptavidin beads blocked in 10 mM Tris-HCl pH 7.5, 100 mM KCl, 0.1 mM EDTA, 1 mM DTT, 0.01% Triton X-100, BSA, tRNA; extract 1 h at 30 °C; protein in an extract; label: biotin

Measured: binding result

AGCCGUAGACUGAGCGAAGACCGAGCUUGU [ARPC2 mut]
binds: [6] | [18]
binds more weakly: [1] | [2]
no binding: all other assays above
